Reference: article PMC8210147, “Characterization of the MurT/GatD complex in Mycobacterium tuberculosis towards validating a novel anti-tubercular drug target” (JAC-Antimicrobial Resistance, 2021)
Results are given in words; binding and its absence hold for the method and conditions named. In cells and extracts the contact can be indirect. A result given as binding can be weak or reduced; the word gives no strength. Tags and fused reporters may be left off the sequences shown.

By UniProt entry, the sequences of proteins in these tests, tags left out. Where a name states a change or a piece, a line headed by the entry shows the natural chain unless it says otherwise.
UniProt I6Y4C7: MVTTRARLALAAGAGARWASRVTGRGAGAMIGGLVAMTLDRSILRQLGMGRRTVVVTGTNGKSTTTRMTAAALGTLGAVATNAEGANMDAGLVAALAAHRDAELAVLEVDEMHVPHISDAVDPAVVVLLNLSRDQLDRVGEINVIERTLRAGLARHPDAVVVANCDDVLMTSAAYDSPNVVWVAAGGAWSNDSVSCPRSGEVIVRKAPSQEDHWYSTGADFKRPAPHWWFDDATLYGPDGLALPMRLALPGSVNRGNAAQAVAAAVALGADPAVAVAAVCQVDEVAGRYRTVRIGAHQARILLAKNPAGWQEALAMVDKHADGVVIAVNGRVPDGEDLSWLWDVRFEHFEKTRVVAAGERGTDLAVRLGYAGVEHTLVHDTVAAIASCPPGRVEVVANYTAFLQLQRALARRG
UniProt P9WI81: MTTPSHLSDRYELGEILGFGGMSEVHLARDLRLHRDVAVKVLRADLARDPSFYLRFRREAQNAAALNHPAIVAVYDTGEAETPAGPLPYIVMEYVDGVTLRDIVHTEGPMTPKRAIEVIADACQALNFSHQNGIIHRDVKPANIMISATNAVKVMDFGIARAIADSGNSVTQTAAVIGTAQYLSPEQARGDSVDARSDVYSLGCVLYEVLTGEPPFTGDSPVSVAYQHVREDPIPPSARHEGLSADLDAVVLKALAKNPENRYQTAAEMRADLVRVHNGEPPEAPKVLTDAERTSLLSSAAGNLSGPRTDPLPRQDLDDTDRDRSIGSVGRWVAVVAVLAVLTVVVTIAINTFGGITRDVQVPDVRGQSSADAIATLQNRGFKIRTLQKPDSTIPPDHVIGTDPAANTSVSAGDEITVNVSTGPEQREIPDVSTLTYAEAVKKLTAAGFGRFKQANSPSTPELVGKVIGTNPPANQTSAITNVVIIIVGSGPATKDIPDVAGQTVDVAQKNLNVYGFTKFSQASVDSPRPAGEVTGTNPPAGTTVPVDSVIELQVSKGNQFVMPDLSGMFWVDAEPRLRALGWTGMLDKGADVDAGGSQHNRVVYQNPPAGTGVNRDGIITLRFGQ

target: Rv3712 (M-PFC bait fusion) (M. tuberculosis) (UniProt I6Y4C7); experiment: split reporter

Molecule | binding
PknB (M-PFC prey fusion) (from UniProt P9WI81 1-626) (enzyme) | binds
PknA (M-PFC prey fusion) (enzyme, UniProt P9WI83 1-431) MSPRVGVTLSGRYRLQRLIATGGMGQVWEAVDNRLGRRVAVKVLKSEFSSDPEFIERFRAEARTTAMLNHPGIASVHDYGESQMNGEGRTAYLVMELVNGEPLNSVLKRTGRLSLRHALDMLEQTGRALQIAHAAGLVHRDVKPGNILITPTGQVKITDFGIAKAVDAAPVTQTGMVMGTAQYIAPEQALGHDASPASDVYSLGVVGYEAVSGKRPFAGDGALTVAMKHIKEPPPPLPPDLPPNVRELIEITLVKNPAMRYRSGGPFADAVAAVRAGRRPPRPSQTPPPGRAAPAAIPSGTTARVAANSAGRTAASRRSRPATGGHRPPRRTFSSGQRALLWAAGVLGALAIIIAVLLVIKAPGDNSPQQAPTPTVTTTGNPPASNTGGTDASPRLNWTERGETRHSGLQSWVVPPTPHSRASLARYEIAQ | binds
MurC (M-PFC fusion) (enzyme, UniProt P9WJL7 1-494) MSTEQLPPDLRRVHMVGIGGAGMSGIARILLDRGGLVSGSDAKESRGVHALRARGALIRIGHDASSLDLLPGGATAVVTTHAAIPKTNPELVEARRRGIPVVLRPAVLAKLMAGRTTLMVTGTHGKTTTTSMLIVALQHCGLDPSFAVGGELGEAGTNAHHGSGDCFVAEADESDGSLLQYTPHVAVITNIESDHLDFYGSVEAYVAVFDSFVERIVPGGALVVCTDDPGGAALAQRATELGIRVLRYGSVPGETMAATLVSWQQQGVGAVAHIRLASELATAQGPRVMRLSVPGRHMALNALGALLAAVQIGAPADEVLDGLAGFEGVRRRFELVGTCGVGKASVRVFDDYAHHPTEISATLAAARMVLEQGDGGRCMVVFQPHLYSRTKAFAAEFGRALNAADEVFVLDVYGAREQPLAGVSGASVAEHVTVPMRYVPDFSAVAQQVAAAASPGDVIVTMGAGDVTLLGPEILTALRVRANRSAPGRPGVLG | no binding
